# At least one structure is not confirmed: it was looked up by name or label, or the drawing left a doubt.
# Experiment: Solubility parameter of dye = log(1/water solubility, mol/L)
# Settings: water of pH 11.0
# Excerpt: Fine and highly monodispersed coloring particles intended according to aspects of the present invention may contain a dye hardly soluble in the water contained in the second liquid described later. […] The solubility parameter of the dye, however, may vary depending on the pH of the water containing it.
# The solubility parameter used according to aspects of the present invention can be calculated by measuring the degree of water solubility (mol/L) of the dye by any known experimental method and then substituting the measurement into equation (1). […] For dyes such as metal complex dyes and salt dyes, the metal or salt is first removed, and then the degree of solubility is calculated using ACD/Structure Design Suite and the solubility parameter is calculated from the value.
structure (smiles),measurement,value
"CCCCNc1ccc(NCCCC)c2c1C(=O)c1ccccc1C2=O [dye 5, Solvent Blue 35]",Solubility parameter of dye,8.16
